Measurements as given in the M2OR odorant receptor database.
The list shows a part of the results, in another mix than the full data. Calls are pooled over several reports, among them a noisy single-well screen. This is one part of the list.

Tests used:
Conditions in all cases: stereoisomer not certain
[1] = target: T1, OR5T1 (Homo sapiens) (UniProt Q8NG75)
T1 sequence (whole entry): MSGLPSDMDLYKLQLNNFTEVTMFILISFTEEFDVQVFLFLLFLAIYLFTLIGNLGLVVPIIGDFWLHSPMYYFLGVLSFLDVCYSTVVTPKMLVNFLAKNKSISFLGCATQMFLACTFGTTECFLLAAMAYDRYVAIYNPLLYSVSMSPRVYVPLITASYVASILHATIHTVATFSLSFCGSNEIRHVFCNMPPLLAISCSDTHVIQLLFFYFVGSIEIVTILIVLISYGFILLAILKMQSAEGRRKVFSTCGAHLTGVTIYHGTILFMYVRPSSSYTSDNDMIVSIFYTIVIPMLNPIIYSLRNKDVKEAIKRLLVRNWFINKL
Procedure, shortened: (§1)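 Transient luciferase assays in mammalian cell lines were common, though methods varied by source. The values come from published papers and their supplementary material, with extra details from the original authors when needed. Responsive refers to a measured signal the original authors judged statistically different from baseline, and non-responsive (inactive) to the remainder.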

[2] = tested on: T2, OR5T1
T2 sequence (whole entry): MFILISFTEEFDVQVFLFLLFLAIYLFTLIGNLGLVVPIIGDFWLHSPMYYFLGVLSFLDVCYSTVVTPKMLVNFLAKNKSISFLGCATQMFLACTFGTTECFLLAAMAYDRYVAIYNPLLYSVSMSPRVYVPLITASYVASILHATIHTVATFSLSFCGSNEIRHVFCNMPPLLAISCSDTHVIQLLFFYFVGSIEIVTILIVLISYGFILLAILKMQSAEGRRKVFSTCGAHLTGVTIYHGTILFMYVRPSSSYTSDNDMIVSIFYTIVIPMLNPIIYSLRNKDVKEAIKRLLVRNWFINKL
Procedure, shortened: as §1

[3] = tested on: T3, OR5T2
T3 sequence (whole entry): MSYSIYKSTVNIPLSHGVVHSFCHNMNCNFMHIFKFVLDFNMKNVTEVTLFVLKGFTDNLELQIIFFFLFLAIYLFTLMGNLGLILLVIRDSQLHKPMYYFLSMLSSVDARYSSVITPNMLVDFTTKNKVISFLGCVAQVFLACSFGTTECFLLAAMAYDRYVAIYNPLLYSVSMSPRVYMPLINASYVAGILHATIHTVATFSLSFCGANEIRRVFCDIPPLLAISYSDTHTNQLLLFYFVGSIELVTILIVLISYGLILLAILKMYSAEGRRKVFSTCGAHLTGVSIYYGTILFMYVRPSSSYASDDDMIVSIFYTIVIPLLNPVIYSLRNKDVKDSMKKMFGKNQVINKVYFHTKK
Procedure, shortened: as §1

[4] = tested on: T4, OR5T2; remark: listed apart in the source
T4 sequence (whole entry): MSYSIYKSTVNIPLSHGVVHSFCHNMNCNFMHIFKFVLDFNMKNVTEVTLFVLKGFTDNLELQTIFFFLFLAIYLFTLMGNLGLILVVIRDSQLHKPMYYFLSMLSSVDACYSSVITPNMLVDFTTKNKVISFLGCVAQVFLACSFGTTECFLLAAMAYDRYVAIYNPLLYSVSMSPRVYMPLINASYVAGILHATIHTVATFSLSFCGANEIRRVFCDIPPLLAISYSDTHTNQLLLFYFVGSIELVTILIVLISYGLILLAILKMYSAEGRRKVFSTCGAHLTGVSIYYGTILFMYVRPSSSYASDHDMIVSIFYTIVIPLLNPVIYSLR
Procedure, shortened: as §1

[5] = tested on: T5, OR5T3
T5 sequence (whole entry): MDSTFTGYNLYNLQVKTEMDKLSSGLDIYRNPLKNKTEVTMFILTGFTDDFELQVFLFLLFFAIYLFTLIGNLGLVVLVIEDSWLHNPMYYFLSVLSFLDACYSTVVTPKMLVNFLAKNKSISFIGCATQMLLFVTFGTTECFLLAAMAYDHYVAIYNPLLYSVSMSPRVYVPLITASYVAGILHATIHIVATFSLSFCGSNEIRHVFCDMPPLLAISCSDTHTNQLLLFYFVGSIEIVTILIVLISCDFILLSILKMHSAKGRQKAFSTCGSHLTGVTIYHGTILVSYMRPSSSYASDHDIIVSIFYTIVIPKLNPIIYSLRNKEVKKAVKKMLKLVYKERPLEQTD
Procedure, shortened: as §1

[6] = target: T6, OR5V1 (Homo sapiens) (UniProt Q9UGF6)
T6 sequence (whole entry): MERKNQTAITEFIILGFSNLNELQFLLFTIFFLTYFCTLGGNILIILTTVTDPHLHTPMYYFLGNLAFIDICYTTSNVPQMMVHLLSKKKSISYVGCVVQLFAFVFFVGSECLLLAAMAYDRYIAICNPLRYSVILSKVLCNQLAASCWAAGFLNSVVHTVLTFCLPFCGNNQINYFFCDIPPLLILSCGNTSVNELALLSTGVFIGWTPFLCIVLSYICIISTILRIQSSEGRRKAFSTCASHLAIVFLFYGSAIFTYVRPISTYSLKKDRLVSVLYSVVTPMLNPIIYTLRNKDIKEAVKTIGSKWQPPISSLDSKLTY
Procedure, shortened: as §1

[7] = tested on: T7, OR5W2
T7 sequence (whole entry): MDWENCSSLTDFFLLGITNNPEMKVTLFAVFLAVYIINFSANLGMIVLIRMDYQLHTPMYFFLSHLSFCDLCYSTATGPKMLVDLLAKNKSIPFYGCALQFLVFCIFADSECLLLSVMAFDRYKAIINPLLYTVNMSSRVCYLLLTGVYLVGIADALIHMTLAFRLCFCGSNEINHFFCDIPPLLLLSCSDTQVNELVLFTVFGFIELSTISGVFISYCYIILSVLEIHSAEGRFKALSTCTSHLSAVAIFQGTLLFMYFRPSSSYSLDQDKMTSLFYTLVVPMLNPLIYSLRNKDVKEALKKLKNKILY
Procedure, shortened: as §1

[8] = target: T8, OR6A2 (Homo sapiens) (UniProt O95222)
T8 sequence (whole entry): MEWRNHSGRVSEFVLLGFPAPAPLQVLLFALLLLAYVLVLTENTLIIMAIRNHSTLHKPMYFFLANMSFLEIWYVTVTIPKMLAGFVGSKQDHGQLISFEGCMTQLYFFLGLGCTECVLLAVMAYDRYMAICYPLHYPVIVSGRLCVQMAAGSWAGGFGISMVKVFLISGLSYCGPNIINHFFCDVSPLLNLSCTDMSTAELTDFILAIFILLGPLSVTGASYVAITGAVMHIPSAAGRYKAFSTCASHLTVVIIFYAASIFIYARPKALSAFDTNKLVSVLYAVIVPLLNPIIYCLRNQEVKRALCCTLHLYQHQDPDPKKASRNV
Procedure, shortened: as §1

[9] = tested on: T9, OR6B1
T9 sequence (whole entry): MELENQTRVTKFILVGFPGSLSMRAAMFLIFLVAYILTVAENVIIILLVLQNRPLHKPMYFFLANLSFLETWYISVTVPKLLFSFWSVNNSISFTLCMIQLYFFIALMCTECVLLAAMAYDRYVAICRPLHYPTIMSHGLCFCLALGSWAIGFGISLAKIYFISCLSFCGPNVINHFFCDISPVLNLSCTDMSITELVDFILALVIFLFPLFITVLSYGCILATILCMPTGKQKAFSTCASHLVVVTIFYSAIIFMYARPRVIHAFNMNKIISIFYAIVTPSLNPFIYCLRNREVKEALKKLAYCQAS
Procedure, shortened: as §1

[10] = tested on: T10, OR6B2
T10 sequence (whole entry): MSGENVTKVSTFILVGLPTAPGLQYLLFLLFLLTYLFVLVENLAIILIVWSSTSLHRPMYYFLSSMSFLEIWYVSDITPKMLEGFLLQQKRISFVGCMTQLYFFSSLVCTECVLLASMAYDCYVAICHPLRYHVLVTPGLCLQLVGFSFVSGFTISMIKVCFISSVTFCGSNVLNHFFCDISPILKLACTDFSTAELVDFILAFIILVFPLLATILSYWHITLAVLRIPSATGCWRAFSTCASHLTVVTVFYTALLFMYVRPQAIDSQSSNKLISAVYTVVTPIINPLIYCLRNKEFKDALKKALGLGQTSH
Procedure, shortened: as §1

[11] = tested on: T11, OR6B3
T11 sequence (whole entry): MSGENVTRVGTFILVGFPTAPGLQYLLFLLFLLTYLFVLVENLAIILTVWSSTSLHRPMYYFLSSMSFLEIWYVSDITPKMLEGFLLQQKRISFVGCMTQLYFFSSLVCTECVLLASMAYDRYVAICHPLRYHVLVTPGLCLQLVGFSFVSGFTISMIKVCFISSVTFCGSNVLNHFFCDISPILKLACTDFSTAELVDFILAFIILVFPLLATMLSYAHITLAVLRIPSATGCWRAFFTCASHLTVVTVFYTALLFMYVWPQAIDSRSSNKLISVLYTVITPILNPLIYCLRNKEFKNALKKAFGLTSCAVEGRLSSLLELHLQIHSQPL
Procedure, shortened: as §1

[12] = tested on: T12, OR6C1
T12 sequence (whole entry): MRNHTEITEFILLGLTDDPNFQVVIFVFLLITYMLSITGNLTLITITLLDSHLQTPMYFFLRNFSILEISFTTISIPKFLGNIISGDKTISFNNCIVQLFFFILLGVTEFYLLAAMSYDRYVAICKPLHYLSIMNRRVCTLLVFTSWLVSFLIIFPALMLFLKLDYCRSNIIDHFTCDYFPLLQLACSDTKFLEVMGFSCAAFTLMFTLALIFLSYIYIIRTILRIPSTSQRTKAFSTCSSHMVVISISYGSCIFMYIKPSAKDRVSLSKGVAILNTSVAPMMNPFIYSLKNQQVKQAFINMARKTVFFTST
Procedure, shortened: as §1

[13] = target: T13, OR6C2 (Homo sapiens) (UniProt Q9NZP2)
T13 sequence (whole entry): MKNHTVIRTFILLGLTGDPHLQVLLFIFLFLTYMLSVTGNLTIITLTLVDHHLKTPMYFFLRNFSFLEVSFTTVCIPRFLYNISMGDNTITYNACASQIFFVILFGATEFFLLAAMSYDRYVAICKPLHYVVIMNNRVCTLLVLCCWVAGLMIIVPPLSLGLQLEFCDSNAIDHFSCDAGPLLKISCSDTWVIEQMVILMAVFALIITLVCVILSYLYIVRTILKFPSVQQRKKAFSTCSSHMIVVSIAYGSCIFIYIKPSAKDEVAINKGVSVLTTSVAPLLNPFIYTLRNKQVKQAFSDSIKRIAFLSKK
Procedure, shortened: as §1

[14] = target: T14, OR6C3 (Homo sapiens) (UniProt Q9NZP0)
T14 sequence (whole entry): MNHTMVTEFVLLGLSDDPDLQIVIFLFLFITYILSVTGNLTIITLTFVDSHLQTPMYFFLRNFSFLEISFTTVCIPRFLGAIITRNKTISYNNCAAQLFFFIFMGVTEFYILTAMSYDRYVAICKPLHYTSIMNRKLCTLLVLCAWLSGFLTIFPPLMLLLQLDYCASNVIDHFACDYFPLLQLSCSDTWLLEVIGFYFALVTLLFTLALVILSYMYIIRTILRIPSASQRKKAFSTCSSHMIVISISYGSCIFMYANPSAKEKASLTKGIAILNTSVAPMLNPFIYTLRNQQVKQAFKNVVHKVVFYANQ
Procedure, shortened: as §1

Measured: odorant receptor agonist call;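 also: active if original authors judged signal statistically different from baseline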

C=CCSCC=C
inactive: all assays above

CCCCCCCC=CC=O
active: [2] | [7]
inactive: all other assays above

CC(C)CC(=O)O
inactive: all assays above

c1cnccn1
inactive: all assays above

CC(=O)OCC=C(C)CCC=C(C)C
inactive: all assays above

COC(=O)c1ccccc1O
inactive: all assays above

CC(=O)C(C)=O
inactive: all assays above

O=C1CCCCC1
inactive: all assays above

CCCCCC(=O)O
inactive: all assays above

CC12CCC(C1)C(C)(C)C2=O (stereo not given)
inactive: all assays above
